Substitutions are numbered along the chain they refer to. These are yes or no findings as the source states them, for the method shown. In cells and extracts the contact can be indirect. A yes stands for co-enrichment or nearness to the bait. Other partners may have been found. Sequences can lack the tags named with a protein.

The chains behind the UniProt entries cited, without tags or fusion partners.
UniProt Q15717: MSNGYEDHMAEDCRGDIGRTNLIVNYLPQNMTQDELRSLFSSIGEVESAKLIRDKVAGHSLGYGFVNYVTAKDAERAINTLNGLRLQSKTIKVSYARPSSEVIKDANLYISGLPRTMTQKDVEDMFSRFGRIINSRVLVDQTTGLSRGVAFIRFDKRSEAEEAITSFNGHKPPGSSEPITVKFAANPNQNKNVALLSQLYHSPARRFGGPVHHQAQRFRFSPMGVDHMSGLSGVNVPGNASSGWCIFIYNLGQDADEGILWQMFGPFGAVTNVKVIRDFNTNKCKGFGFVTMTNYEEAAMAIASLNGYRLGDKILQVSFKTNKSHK
UniProt Q9Y6M1: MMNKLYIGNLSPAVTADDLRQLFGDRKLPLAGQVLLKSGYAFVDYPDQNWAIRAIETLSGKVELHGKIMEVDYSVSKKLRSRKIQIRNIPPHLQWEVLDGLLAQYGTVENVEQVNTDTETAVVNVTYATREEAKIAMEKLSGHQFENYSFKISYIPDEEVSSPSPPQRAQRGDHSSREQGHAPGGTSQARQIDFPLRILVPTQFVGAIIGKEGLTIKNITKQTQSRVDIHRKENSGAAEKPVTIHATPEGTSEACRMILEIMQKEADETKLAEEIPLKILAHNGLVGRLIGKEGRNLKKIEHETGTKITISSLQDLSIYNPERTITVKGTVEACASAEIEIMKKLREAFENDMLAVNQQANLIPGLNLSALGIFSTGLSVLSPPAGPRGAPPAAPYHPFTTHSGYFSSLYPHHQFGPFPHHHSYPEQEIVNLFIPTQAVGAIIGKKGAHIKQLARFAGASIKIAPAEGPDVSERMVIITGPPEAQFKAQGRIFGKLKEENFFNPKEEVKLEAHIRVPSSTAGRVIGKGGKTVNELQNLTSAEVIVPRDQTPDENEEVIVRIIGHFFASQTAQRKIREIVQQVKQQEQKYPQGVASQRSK
UniProt O00425: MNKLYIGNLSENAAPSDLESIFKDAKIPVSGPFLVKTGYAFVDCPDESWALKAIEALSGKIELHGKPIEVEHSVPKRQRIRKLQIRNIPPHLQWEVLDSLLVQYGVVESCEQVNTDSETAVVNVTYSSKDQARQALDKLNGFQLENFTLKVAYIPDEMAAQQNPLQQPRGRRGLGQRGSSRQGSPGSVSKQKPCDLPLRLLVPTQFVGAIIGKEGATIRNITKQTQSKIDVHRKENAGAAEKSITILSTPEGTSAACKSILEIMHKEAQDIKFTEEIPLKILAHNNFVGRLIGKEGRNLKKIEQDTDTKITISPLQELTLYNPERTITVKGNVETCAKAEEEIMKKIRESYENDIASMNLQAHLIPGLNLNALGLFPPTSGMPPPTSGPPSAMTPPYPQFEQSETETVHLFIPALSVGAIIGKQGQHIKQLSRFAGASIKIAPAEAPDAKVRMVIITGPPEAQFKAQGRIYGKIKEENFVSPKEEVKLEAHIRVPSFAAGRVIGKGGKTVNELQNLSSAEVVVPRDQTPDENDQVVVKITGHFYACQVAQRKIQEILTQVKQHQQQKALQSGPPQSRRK
UniProt P11940: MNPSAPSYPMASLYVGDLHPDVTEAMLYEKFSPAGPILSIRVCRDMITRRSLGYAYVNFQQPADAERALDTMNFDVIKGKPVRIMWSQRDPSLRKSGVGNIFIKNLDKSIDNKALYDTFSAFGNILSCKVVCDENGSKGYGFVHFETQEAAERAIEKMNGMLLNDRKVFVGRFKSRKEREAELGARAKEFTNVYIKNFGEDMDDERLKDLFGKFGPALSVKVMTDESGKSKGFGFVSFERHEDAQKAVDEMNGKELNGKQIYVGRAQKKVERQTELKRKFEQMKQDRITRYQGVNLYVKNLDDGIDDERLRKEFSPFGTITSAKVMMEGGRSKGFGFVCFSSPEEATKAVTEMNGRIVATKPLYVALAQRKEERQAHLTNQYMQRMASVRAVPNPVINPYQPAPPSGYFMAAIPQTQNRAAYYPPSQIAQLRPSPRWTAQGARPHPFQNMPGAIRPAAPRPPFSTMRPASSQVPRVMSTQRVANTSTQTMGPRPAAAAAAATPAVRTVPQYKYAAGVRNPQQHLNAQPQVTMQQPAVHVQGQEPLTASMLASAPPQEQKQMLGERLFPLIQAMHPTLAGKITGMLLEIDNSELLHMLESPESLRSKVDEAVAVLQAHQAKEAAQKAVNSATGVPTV

Results on 4 substances are retold here after article PMC6805484.

In assay [1] the target is T1, GFP-MKRN1^wt (Makorin Ring Finger Protein 1, wild type, N-terminally GFP-tagged) (human) (UniProt Q9UHC7).
T1 sequence: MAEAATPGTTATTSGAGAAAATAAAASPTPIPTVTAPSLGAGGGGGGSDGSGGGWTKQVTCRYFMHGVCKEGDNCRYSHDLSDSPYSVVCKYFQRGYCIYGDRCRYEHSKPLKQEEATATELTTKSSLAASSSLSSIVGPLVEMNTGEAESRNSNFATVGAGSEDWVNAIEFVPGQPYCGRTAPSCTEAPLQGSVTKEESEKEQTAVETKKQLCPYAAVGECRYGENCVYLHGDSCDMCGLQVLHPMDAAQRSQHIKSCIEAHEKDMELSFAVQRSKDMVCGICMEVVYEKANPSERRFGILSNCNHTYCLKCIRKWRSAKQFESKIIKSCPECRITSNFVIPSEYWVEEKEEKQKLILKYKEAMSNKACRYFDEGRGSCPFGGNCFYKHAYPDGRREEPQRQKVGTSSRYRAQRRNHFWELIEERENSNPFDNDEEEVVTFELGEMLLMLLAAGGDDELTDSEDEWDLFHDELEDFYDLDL
Description: affinity purification with mass spectrometry; GFP-trap agarose beads with cleared lysates of HEK293T cells transiently expressing N-terminally GFP-tagged MKRN1 wt or mutants (medium or heavy SILAC) or GFP alone (light SILAC); mRIPA buffer, 1 h at 4 °C; three replicates, FDR < 5%.

Assay [2] concerns the target T2, GFP-MKRN1^RINGmut (H307E, ligase-dead) (human) (UniProt Q9UHC7).
T2 sequence: T1 sequence with H307E
The description is as above.

“ELAVL1 (endogenous) (from UniProt Q15717 1-326)”: the binding result in assay [1] is “binds”.

On to “IGF2BP2 (endogenous) (from UniProt Q9Y6M1 1-599)”, for which the binding result in assay [1] is “binds”.

For “IGF2BP3 (endogenous) (from UniProt O00425 1-579)”, the binding entry in assay [1] is on record as “binds”.

With “cytoplasmic poly(A)-binding protein PABPC1 (endogenous) (from UniProt P11940 1-636)”, the binding result in assay [1] and in assay [2] was “binds” throughout.
